Experimental data: paper PMC6387369, “Carbonic Anhydrase Inhibitors of Different Structures Dilate Pre-Contracted Porcine Retinal Arteries” (International Journal of Molecular Sciences, 2019)

System: porcine retinal arteries
Assay: small vessel myography of wall tension in isolated retinal artery segments pre-contracted with U-46619
Type: cell-based
Conditions: Sus scrofa; best fit to concentration-response curves; arteries pre-contracted with 10^−6 M U-46619; read-out: mean EC50 of vasodilation
Method: Changes in the wall tension of short segments (<2 mm) of porcine retinal arterioles were examined with a small vessel myography system. Pig eyes were obtained from a local abattoir. The pigs were anesthetized with CO2 and put down by exsanguination. All procedures involving animals adhered to the appropriate local and international laws and relevant ethical rules. Only one eye was obtained from each animal for the experiments. Eyes were placed in a 4 °C oxygenated physiological saline solution (PSS) and transported to the laboratory as quickly as possible (within 30 min). […]
The eyes were bisected with a razor blade at the equator and the anterior segment removed. […] The exact length of the vessel segment, once placed in the myography system, was measured by taking a photograph of it through the stereoscope, and then converting the vessel length in pixels into millimeters. The heating unit of the DMT630MA system was then turned on and set to a stable temperature of 37 °C, monitored by a thermal probe inserted into the bathing medium.
The wall tension of the vessel segment was continuously recorded with LabChart Pro (ADInstruments, Oxford, UK). Once the temperature in the bathing medium had reached 37 °C, the preparation was left to stabilize for 30 min and the normalization of wall tension was carried out, taking into account the measured length of the vessel. […]

Q: Which EC50 does the source give for `CCN[C@H]1C[C@H](C)S(=O)(=O)c2sc(S(N)(=O)=O)cc21` [Compound 2, Dorzolamide, reference compound] here?
A: The EC50 was 860 µM.
